# For at least one entry, the source does not settle the construct or the ends of the probe. At least one verdict was read from the data and is not stated in words by the source. Protein sequences can lack the tags named with them.
# Biological target: T1, MBP-SUV39H1 42-106 (chromodomain) (Homo sapiens) (UniProt O43463)
# T1 sequence (looked up): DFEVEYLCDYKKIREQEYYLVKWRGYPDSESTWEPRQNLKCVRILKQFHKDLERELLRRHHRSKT
# Experiment: filter binding
# Details: 20 mM Tris-HCl pH 7.4, 50 mM NaCl, 10% glycerol, ~4 U RNase inhibitor, room temperature 10 min; native gel 0.5X TBE at 25 C; recombinant protein; residues 42-106; protein details: MBP; label: 32P
sequence,measurement,value
AUAUGGGAACCACUGAUCC [sense 19mer ssRNA],binding result,binds
